Reference: PubChem BioAssay AID1159584 (Peter MacCallum Cancer Centre, 2016)

Aim: 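Genes that CDH1-null MCF10A cells selectively depend on to survive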 (primary screen)
Cell system: human MCF10A breast epithelial cells, parental and CDH1-null
Reagents: siRNA against human genes
Measured: 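Cell viability by CellTiter-Glo ATP luminescence, each line scaled to the mean of mock wells across plates, then CDH1-null over parental ratio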
Scale: CDH1-null / parental viability ratio: higher = CDH1-null cells survive relatively better than parental; CDH1-null viability vs mock: higher = more viable CDH1-null cells; parental viability vs mock: higher = more viable parental cells
Here is a random part of about 18,000 reagents. The record does not give: the amount of reagent, the time to read-out.

no.	Gene	CDH1-null / parental viability ratio	CDH1-null viability vs mock (fraction of mock)	parental viability vs mock (fraction of mock)
1	CLN6 (CLN6 transmembrane ER protein)	1.14	1	0.88
2	UBA2 (ubiquitin like modifier activating enzyme 2)	1.11	0.71	0.64
3	H4C6 (H4 clustered histone 6)	1.04	0.8	0.77
4	CPVL (carboxypeptidase vitellogenic like)	1.14	0.96	0.84
5	ALOX12 (arachidonate 12-lipoxygenase, 12S type)	0.96	0.9	0.94
6	ZNF256 (zinc finger protein 256)	0.77	0.78	1.01
7	VHLL (VHL like)	0.96	0.64	0.67
8	HOXD10 (homeobox D10)	0.94	0.66	0.7
9	DSTN (destrin, actin depolymerizing factor)	1.15	0.76	0.66
10	IKZF1 (IKAROS family zinc finger 1)	1.1	1.01	0.92
11	LGALS7B (galectin 7B)	1	0.72	0.72
12	HES5 (hes family bHLH transcription factor 5)	1.21	0.94	0.78
13	VRK3 (VRK serine/threonine kinase 3)	1.08	0.98	0.91
14	USP34 (ubiquitin specific peptidase 34)	1.19	0.96	0.81
15	MYL12A (myosin light chain 12A)	1.27	0.7	0.55
16	HLA-DOB (major histocompatibility complex, class II, DO beta)	0.9	0.7	0.78
17	GSDMD (gasdermin D)	1.14	0.89	0.78
18	GCOM1 (GCOM1, MYZAP-POLR2M combined locus)	0.96	0.8	0.83
19	WDR53 (WD repeat domain 53)	0.9	0.72	0.8
20	UBAP2 (ubiquitin associated protein 2)	0.89	0.68	0.76
21	SURF2 (surfeit 2)	0.97	0.83	0.86
22	ZNF692 (zinc finger protein 692)	0.77	0.57	0.74
23	ZDHHC13 (zDHHC palmitoyltransferase 13)	0.93	0.76	0.82
24	CD1A (CD1a molecule)	1.18	0.85	0.72
25	CD63 (CD63 molecule)	0.83	0.72	0.87
26	SART1	1.4	0.21	0.15
27	SRRT (serrate, RNA effector molecule)	1.16	0.86	0.74
28	NPTN (neuroplastin)	1.05	1.11	1.06
29	H2BC7 (H2B clustered histone 7)	1.16	1.06	0.91
30	KCND1 (potassium voltage-gated channel subfamily D member 1)	1.02	0.86	0.84
31	ACVRL1 (activin A receptor like type 1)	0.93	0.75	0.81
32	LPGAT1 (lysophosphatidylglycerol acyltransferase 1)	1.13	1.12	0.99
33	SUSD1 (sushi domain containing 1)	0.7	0.62	0.88
34	LY9 (lymphocyte antigen 9)	0.91	0.64	0.7
35	UBA5 (ubiquitin like modifier activating enzyme 5)	1.18	0.97	0.82
36	CNTNAP5 (contactin associated protein family member 5)	1	0.82	0.82
37	ERCC8 (ERCC excision repair 8, CSA ubiquitin ligase complex subunit)	0.97	0.86	0.89
38	PTGER4 (prostaglandin E receptor 4)	0.91	0.95	1.04
39	ZBTB45 (zinc finger and BTB domain containing 45)	0.93	0.84	0.9
40	U2AF1 (U2 small nuclear RNA auxiliary factor 1)	1.38	0.36	0.26
41	SLC5A2	0.85	0.86	1.01
42	CRISP1 (cysteine rich secretory protein 1)	1.36	0.8	0.59
43	IFT81 (intraflagellar transport 81)	0.82	0.69	0.84
44	NFKBIA (NFKB inhibitor alpha)	1.31	0.76	0.58
45	FBLN7 (fibulin 7)	1.13	1.06	0.94
46	SMARCAL1 (SNF2 related chromatin remodeling annealing helicase 1)	0.84	0.62	0.74
47	PAGE1 (PAGE family member 1)	0.9	0.94	1.05
48	TAF1L (TATA-box binding protein associated factor 1 like)	1.12	0.95	0.85
49	MUSTN1 (musculoskeletal, embryonic nuclear protein 1)	1.57	0.47	0.3
50	SREK1 (splicing regulatory glutamic acid and lysine rich protein 1)	1.19	1.05	0.88
51	EXOSC1 (exosome component 1)	1.11	0.51	0.46
52	RDM1 (RAD52 motif containing 1)	0.96	1.08	1.12
53	GUCY2D (guanylate cyclase 2D, retinal)	1.1	0.64	0.58
54	NACC1 (nucleus accumbens associated 1)	1.37	0.7	0.51
55	MIF4GD (MIF4G domain containing)	0.93	0.51	0.55
56	CDC7 (cell division cycle 7)	0.91	0.82	0.9
57	CNNM1	1	0.82	0.82
58	TMEM11 (transmembrane protein 11)	0.74	0.58	0.78
59	ZNF444 (zinc finger protein 444)	0.88	0.9	1.02
60	LCTL (lactase like)	0.86	0.84	0.98
61	TMEM37 (transmembrane protein 37)	1.07	0.81	0.76
62	SPSB4 (splA/ryanodine receptor domain and SOCS box containing 4)	0.91	0.6	0.66
63	NLRP12 (NLR family pyrin domain containing 12)	1.02	1.1	1.08
64	PDCD1 (programmed cell death 1)	1.6	0.72	0.45
65	TRIM7 (tripartite motif containing 7)	0.97	0.93	0.96
66	OR8U1 (olfactory receptor family 8 subfamily U member 1)	1.12	1.01	0.9
67	IER3IP1 (immediate early response 3 interacting protein 1)	1.31	0.94	0.72
68	NDFIP1 (Nedd4 family interacting protein 1)	1.35	0.65	0.48

Ordered by “parental viability vs mock (fraction of mock)” (lowest first): some entries from above
Gene	CDH1-null / parental viability ratio	CDH1-null viability vs mock (fraction of mock)	parental viability vs mock (fraction of mock)
LY9 (lymphocyte antigen 9)	0.91	0.64	0.7
UBA5 (ubiquitin like modifier activating enzyme 5)	1.18	0.97	0.82
CNTNAP5 (contactin associated protein family member 5)	1	0.82	0.82
SUSD1 (sushi domain containing 1)	0.7	0.62	0.88
ERCC8 (ERCC excision repair 8, CSA ubiquitin ligase complex subunit)	0.97	0.86	0.89
ZBTB45 (zinc finger and BTB domain containing 45)	0.93	0.84	0.9
LPGAT1 (lysophosphatidylglycerol acyltransferase 1)	1.13	1.12	0.99
PTGER4 (prostaglandin E receptor 4)	0.91	0.95	1.04
